The values that follow come from US20110045982A1, “HERBICIDAL COMPOSITION” (NOF CORPORATION, priority 2009, published 2011).

The nature of the data set: Evaluation of odor by direct application (sensory). Conditions: applied ragweed sealed in plastic bag, sensory evaluation after one day.

Turning to `CCCCCC(=O)O` [compound 1, caproic acid], the odor entry was “stink”. Besides, under “listed as Comparative Example 1”, the odor entry was “stank”.
For the compound `CCCCCCCCC(=O)O` [compound 2, pelargric acid], the odor result was “stink”. Besides, the odor entry (listed as Comparative Example 2) is “stank”.
Consider `C=CCCCCCCCCC(=O)O` [compound 3, undecylenoic acid], for which the odor result is “stink”. In addition, the odor entry (listed as Comparative Example 3) is recorded as “stank”.
As to `CCCCCCCCC(=O)OCCO` [compound 4, ethylene glycol monopelargric acid ester], the odor result (listed as Comparative Example 4) is recorded as “only slightly smelled”.
